The target in test [1] is subunit 9 of yeast mitochondrial ATP synthase (S. cerevisiae (endogenous in yeast mitochondria)) (UniProt P61829). In words: native gel or EMSA; BN-PAGE (3-10% polyacrylamide) of digitonin extracts (50 µg protein) of mitochondria from atp6Δ yeast grown in rich galactose; blot probed with antibodies against subunit 9. (In general: Mobility shift assays separate free from complexed probe on a gel.)

The chains behind the UniProt entries cited, without tags or fusion partners.
UniProt P61829: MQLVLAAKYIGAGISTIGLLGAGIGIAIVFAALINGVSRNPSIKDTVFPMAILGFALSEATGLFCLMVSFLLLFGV

For test [2] the target is unchanged. Nature of the test: native gel or EMSA; BN-PAGE (3-10% polyacrylamide) of digitonin extracts (50 µg protein) of mitochondria from atp12Δ yeast (no F1) grown in rich galactose; blot probed with antibodies against subunit 9.

No constants are given. Whether binding was seen depends on the method and setting. Some binding calls cover weakened binding; strength is not graded here.

As for “subunit 9 of yeast mitochondrial ATP synthase (from UniProt P61829 1-76)”, the binding result in test [1] was “binds”; in test [2], “no binding (condition: in atp12Δ yeast (F1 absent))”.
